According to paper PMC7410302:
Results are given in words; binding and its absence hold for the method and conditions named. Binding seen in cells or lysates may run through a third protein. These calls come from enrichment with a bait or labelling near it, and not all partners need be listed.

target: Sgg-PB tagged with 3xFLAG-StrepTagII-mVenus-StrepTagII (FSVS) (D. melanogaster (endogenous in embryos)); assay: affinity purification with mass spectrometry; iPAC-MS: lysate of 8-20 hr embryos with endogenously tagged Sgg, divided into three (6 mg total protein per pulldown) and purified independently on ANTI-FLAG M2 affinity gel, Strep-Tactin Superflow resin and anti-GFP mAb agarose; 2 h at 4°C; extraction buffer 50 mM Tris pH 7.5, 125 mM NaCl, 1.5 mM MgCl2, 1 mM EDTA, 5% glycerol, 0.4% Igepal CA-630, 0.5% digitonin, 0.1% Tween 20; LC-MS/MS, label-free quantification, QProt against the w1118 control; enriched with at least two of the three tags at FDR < 0.05

binding	Binder
binds	Walrus (protein, UniProt Q7KN94 20-330) STLVVAEHNNEVLNPITLNTISAAKKIGGDVTVLVAGTKCGPASEALSKVDGVTKVLVAENAAFNGFTAESLTPLVLAAQSQFKFTHILAGASAFGKNVLPRVAAKLDVSPISEIIDVKSDDTFVRTIYAGNAILTLKSKDAVKVITVRSTNFPPAATSGGSGAVEQAPAGDFASSLSEFVSQELTKSDRPELAGAKVIVSGGRGLKSGDNFKLLYDLADKFGAAVGASRAAVDAGFVPNDLQIGQTGKIVAPELYIAVGISGAIQHLAGMKDSKTIVAINKDPEAPIFQVADIGIVADLFKAVPELTGKL
binds	Cabeza (protein, UniProt Q27294 1-399) MERGGYGGGSGQGYNNFAVPPPNYQQMPNKTGNYNEPPPNYGKQGGGYDSGSGHRGSGGSGNGGGGGGSWNDRGGNSYGNGGASKDSYNKGHGGYSGGGGGGGGGGGGGSGGNDMITQEDTIFVSGMDPSTTEQDIETHFGAIGIIKKDKRTMKPKIWLYKNKETGASKGEATVTYDDTNAAQSAIEWFDGRDFNGNAIKVSLAQRQNNWNKGGGGGGGGGGRGGFGGRRGGGGGGGGGGGGGGRFDRGGGGGGGRYDRGGGGGGGGGGGNVQPRDGDWKCNSCNNTNFAWRNECNRCKTPKGDDEGSSGGGGGGGYGGGGGGGGYDRGNDRGSGGGGYHNRDRGGNSQGGGGGGGGGGGYSRFNDNNGGGRGGRGGGGGNRRDGGPMRNDGGMRSRPY
binds	Regulatory particle non-ATPase 7 (protein, UniProt Q9V3G7 1-389) MPAENLEEQGLEKNPNLELAQTKFLLTLAEYKQDAALKAKLLEAIRTENMAPWYEHICSELGWTVDKDLLARMKENNRVEVEQLDAAIEDAEKNLGEMEVREANLKKSEYLCRIGDKAAAETAFRKTYEKTVSLGHRLDIVFHLIRLGLFYLDHDLITRNIDKAKYLIEEGGDWDRRNRLKVYQGVYSVAVRDFKAAATFFLDTVSTFTSYELMDYPTFVRYTVYVAMIALPRNELRDKVIKGSEIQEVLHGLPDVKQFLFSLYNCQYENFYVHLAGVEKQLRLDYLIHPHYRYYVREMRILGYTQLLESYRSLTLQYMAESFGVTVEYIDQELARFIAAGRLHAKVDRVGGIVETNRPDNKNWQYQATIKQGDLLLNRIQKLSRVINI
binds	Innexin 2 (protein, UniProt Q9V427 1-367) MFDVFGSVKGLLKIDQVCIDNNVFRMHYKATVIILIAFSLLVTSRQYIGDPIDCIVDEIPLGVMDTYCWIYSTFTVPERLTGITGRDVVQPGVGSHVEGEDEVKYHKYYQWVCFVLFFQAILFYVPRYLWKSWEGGRLKMLVMDLNSPIVNDECKNDRKKILVDYFIGNLNRHNFYAFRFFVCEALNFVNVIGQIYFVDFFLDGEFSTYGSDVLKFTELEPDERIDPMARVFPKVTKCTFHKYGPSGSVQTHDGLCVLPLNIVNEKIYVFLWFWFIILSIMSGISLIYRIAVVAGPKLRHLLLRARSRLAESEEVELVANKCNIGDWFLLYQLGKNIDPLIYKEVISDLSREMSGDEHSAHKRPFDA
binds	Fasciclin 1 (protein, UniProt P10674 22-625) DLADKLRDDSELSQFYSLLESNQIANSTLSLRSCTIFVPTNEAFQRYKSKTAHVLYHITTEAYTQKRLPNTVSSDMAGNPPLYITKNSNGDIFVNNARIIPSLSVETNSDGKRQIMHIIDEVLEPLTVKAGHSDTPNNPNALKFLKNAEEFNVDNIGVRTYRSQVTMAKKESVYDAAGQHTFLVPVDEGFKLSARSSLVDGKVIDGHVIPNTVIFTAAAQHDDPKASAAFEDLLKVTVSFFKQKNGKMYVKSNTIVGDAKHRVGVVLAEIVKANIPVSNGVVHLIHRPLMIIDTTVTQFLQSFKENAENGALRKFYEVIMDNGGAVLDDINSLTEVTILAPSNEAWNSSNINNVLRDRNKMRQILNMHIIKDRLNVDKIRQKNANLIAQVPTVNNNTFLYFNVRGEGSDTVITVEGGGVNATVIQADVAQTNGYVHIIDHVLGVPYTTVLGKLESDPMMSDTYKMGKFSHFNDQLNNTQRRFTYFVPRDKGWQKTELDYPSAHKKLFMADFSYHSKSILERHLAISDKEYTMKDLVKFSQESGSVILPTFRDSLSIRVEEEAGRYVIIWNYKKINVYRPDVECTNGIIHVIDYPLLEEKDVVVA
